Results published in patent US9737075B2, “Synergistic benzoxaborole-containing anti-fungicidal composition” (The Penn State Research Foundation, priority 2015, dated 2017).
Some results were stated once for a whole list of compounds, not compound by compound.

Tested on: two dozen different fungal organisms
Assay: Broth microdilution MIC, summary over the organisms examined
Assay type: cell-based
Details: against many species tested here
Method: All antifungal susceptibility assays were conducted in triplicate and N independent times. Thus, the inhibition studies were conducted a total of 3·N times. […] Thus, each synergy assay (combination of two antifungals) was conducted in conjunction with independent MIC determination. FICI values were calculated by comparing the inhibition activity of the combination (benzoxaborole+another antifungal) against the efficacy of the individual antifungal within the same experiment (using the same experimental conditions).
The studies were performed in flat bottom, 96-well microtiter plates (Greiner Bio-One).
Plates sealed with clear polyester film (VWR) were incubated at a temperature of about 25° C. The progress of fungal growth was monitored at 48 hours, 72 hours, 7 days, and 15 days. […] In order to establish appropriate comparison between the different fungi, the FICI (thus, the MICs used) determination was done at 72 hours for all cases discussed herein.
The MICs of the individual antifungals (MICBoron and MICA) and in combination (MICBA) were determined after 72 hours of incubation. […] MICA is defined as the MIC value of every other individual non-benzoxaborole-based antifungal. MICBA is defined as the MIC value when the benzoxaborole antifungal is combined with another non-benzoxaborole antifungal. […]

| Substance | MIC values |
| --- | --- |
| mancozeb | > 25 µg/mL |
| maneb | > 25 µg/mL |
